{"source": "PubChem BioAssay AID1458", "about": "(National Center for Advancing Translational Sciences (NCATS), 2008)", "note": "The campaign covered roughly 210,000 compounds. About 5,900 (2.8%) were called active. Another 5% or so got no clear call; they are omitted. The call rests on the fitted dose curve; in most records, active means well fitted activation curve with a large enough effect; inconclusive means small, poorly fitted or top-dose-only effect; inactive means no such curve, though single readings can be large or run the other way. The entries are a selection whose mix differs from that of the whole data set. The source gives no active or inactive call for entries shown without one. Potency means the concentration at half of the fitted maximal effect."}
{"assay": "qHTS Assay for Enhancers of SMN2 Splice Variant Expression; further: nearly all actives have a fitted effect of over 55% in size; on activity change, positive = activation: % of control where 0% means no effect", "conditions": "HEK293 SMN2-luciferase splicing reporter, luminescence, 30-36 h; activity change, positive = activation: at 46.1 µM (top of the series) unless noted", "from_the_text": "NIH Chemical Genomics Center [NCGC] NIH Molecular Libraries Probe Production centers Network [MLPCN] MLPCN Grant: R03 MH084179-01 Assay Submitter (PI): Elliot Androphy NCGC Assay Overview: Spinal muscular atrophy (SMA) is caused by insufficient levels of the survival motor neuron protein SMN. The SMN locus on chromosome 5q13 contains two inverted copies of SMN called SMN1 and SMN2 which are 99% identical at the amino acid level. SMN1 is a fully functional protein and SMN2 skips exon 7 90% of the time. Skipping of exon 7 produces non-functional protein product. 10% of the SMN2 protein includes exon 7 and is fully functional. In the SMA disease state, mutations in the SMN1 locus are the cause of the disease state. Because only 10% of SMN2 is of the fully functional form, it is not sufficient to overcome the deficiency produced by the loss of the SMN1 product. A therapy that either increase the amount of SMN2 product made or to increase the inclusion of exon 7 has been proposed for the treatment of SMA. We have designed an assay to identify small molecules that can increase the amount of functional SMN2 product by appending a luciferase reporter gene after the native SMN2 gene, such that inclusion of exon 7 in the expressed product places the luciferase sequence in frame, thus generating functional luciferase enzyme.\nNCGC Assay Protocol Summary: This screen utilizes a luciferase reporter gene assay, combining the promoter and splicing based cassettes in tandem with the major portion of the native SMN2 cDNA, and then transfected into HEK293 cells. Compounds that increase luciferase signal presumably enhance expression of the functional SMN2 splice variant. Passaging media contained DMEM w/ glutamax (+phenol red) 10% FCS, 1x pen/strep, 200 ug/ml hygro, 1x sodium pyruvate. Assay media contained DMEM w/ glutamax (-phenol red) 10% FCS, 1x pen strep, 1x pyruvate Sequence, Parameter, Value, Description (1) Cells, […], 2000 cells/well, 1536 TC treated White solid bottom plate (2) Time, 10-12 hours, 37C 5% CO2 (3) Compound, 23 nl, MLSMR Library (4) Control Compound, 23 nL, Sodium butyrate st 4.5mM (final) conc (5) Time, 30-36 hours, 37C 5% CO2 (6) Reagent, 3 ul, One Glo (TM) from Promega (7) Time, 5-15 minutes, Room temp (8) Detector, Viewlux: luminescent read, 60 second integration, high speed 2x binning Keywords: Spinal muscular atrophy, SMA, SMN2, high throughput screening, MLSMR, MLPCN, NIH Roadmap, qHTS and NCGC"}
{"smiles": "COCCN(C(=O)c1ccc2ccccc2c1)c1c(N)n(Cc2ccccc2)c(=O)[nH]c1=O", "activity change, positive = activation": "-32.2%"}
{"smiles": "CN(C(=O)CCN1C(=O)C(C)(C)Nc2ccccc21)c1ccccc1", "activity change, positive = activation": "35.6%"}
{"smiles": "COc1cc(OC)nc(Oc2cc(/C=N/O)ccc2OC)n1", "activity change, positive = activation": "-13.7%"}
{"smiles": "CCN(CC)C(=O)CSc1nc2ccccc2c(=O)n1-c1cccc(OC)c1", "activity change, positive = activation": "36.6%"}
{"smiles": "CC(c1ccco1)N(C(=O)c1ccccc1NS(=O)(=O)c1cc([N+](=O)[O-])ccc1Cl)c1ccccn1", "note": "(centres undefined)", "activity change, positive = activation": "-52.5%"}
{"smiles": "CC1C/C(=C/c2ccncc2)C(=O)/C(=C/c2ccncc2)C1", "note": "(centres undefined)", "activity change, positive = activation": "-104%"}
{"smiles": "CCc1nonc1NC(=O)c1oc2ccccc2c1C", "activity change, positive = activation": "31.2%"}
{"smiles": "c1ccc(-c2nnc(N3CCN(c4ccccn4)CC3)c3ccccc23)cc1", "activity change, positive = activation": "-93.5%"}
{"smiles": "COc1ccc(-c2cc(C(F)(F)F)nc(SCC(=O)Nc3cc(C)on3)n2)cc1", "activity change, positive = activation": "48.3%"}
{"smiles": "CCNC(=O)N1CCNC(=O)C1CC(=O)OC", "note": "(centres undefined)", "activity change, positive = activation": "41.4%"}
{"smiles": "C=CCc1cccc(/C=N/NC(=O)c2ccccc2OC)c1O", "activity change, positive = activation": "inactive: -102%"}
{"smiles": "COC(=O)c1c(C)oc2ccc(N(C(=O)c3ccncc3)S(=O)(=O)c3ccc(C)cc3)cc12", "activity change, positive = activation": "-64.1%"}
{"smiles": "COc1ccc(Cn2nnnc2C(C(C)C)N2CCN(c3ccccc3OC)CC2)cc1", "note": "(centres undefined)", "activity change, positive = activation": "-50.8%"}
{"smiles": "Cc1cc(C)c(NC(=O)Cc2ccc(-n3cccc3)cc2)c(C)c1", "activity change, positive = activation": "22.9%"}
{"smiles": "COc1cccc(C(=O)/C=C2\\Sc3ccccc3N2C)c1", "Potency": "active: 6.31 µM"}
{"smiles": "Cc1sc(NC(=O)c2ccccc2)c(C(c2ccccn2)N2CCN(CCO)CC2)c1C", "note": "(centres undefined)", "activity change, positive = activation": "-61.7%"}
{"smiles": "O=C(CN1C(=O)COc2ccc(S(=O)(=O)N3CCOCC3)cc21)N1CCN(c2ccccc2)CC1", "activity change, positive = activation": "24.4%"}
{"smiles": "O=C(NCc1ccncc1)c1ccc(N2CCCC2)c([N+](=O)[O-])c1", "activity change, positive = activation": "-46.1%"}
{"smiles": "O=S(=O)(c1cccc(-c2cn3cc(Cl)ccc3n2)c1)N1CCOCC1", "activity change, positive = activation": "38.9%"}
{"smiles": "CN(C(=O)/C=C/c1ccccc1)C1CCS(=O)(=O)C1", "note": "(centres undefined)", "activity change, positive = activation": "11.2%"}
{"smiles": "CCOc1cc(/C=N/NC(=O)c2ccc(-c3csc(Nc4ccc(C)cc4)n3)cc2)ccc1OCC(=O)O", "Potency": "active: 12.6 µM"}
{"smiles": "O=c1cc(-c2ccccc2)[nH]c2nc3ccccc3n12", "Potency": "active: 3.98 µM"}
{"smiles": "Cc1cc(C)n2c(Br)c(CSc3nc4ccccc4s3)nc2n1", "Potency": "active: 11.2 µM"}
{"smiles": "Cn1nnnc1Sc1c(Cl)cccc1[N+](=O)[O-]", "activity change, positive = activation": "-27.1%"}
{"smiles": "O=C(CCl)Nc1ccc(Oc2cnc3ccccc3n2)cc1", "activity change, positive = activation": "inactive: -73.6%"}
{"smiles": "CCOC(=O)c1nn(-c2ccc3c(c2)CCN3C(C)=O)cc1O", "Potency": "active: 10 µM"}
{"smiles": "CC(Oc1ccc(Cl)cc1Cl)c1nc(-c2ccc(NC(=O)c3ccncc3)cc2)no1", "note": "(centres undefined)", "activity change, positive = activation": "inactive: -70.7%"}
{"smiles": "COCCCN(C(C)=O)c1nc(-c2ccccc2)cs1", "activity change, positive = activation": "90.3%"}
{"smiles": "CCOC(=O)CSc1nnc(Cn2nnc(-c3ccccc3)n2)n1C", "activity change, positive = activation": "61.2%"}
{"smiles": "O=c1[nH]nc(Cc2ccccc2)c2ccccc12", "activity change, positive = activation": "37.6%"}
{"smiles": "O=c1c(N2CCCCC2)coc2ccccc12", "activity change, positive = activation": "38%"}
{"smiles": "Cc1cc(C(=O)COC(=O)c2n[nH]c3ccccc23)c(C)n1CC1CCCO1", "note": "(centres undefined)", "activity change, positive = activation": "inactive: -34.2%"}
{"smiles": "NNC(=O)c1cnn(-c2ccccc2)c1-n1cccc1", "activity change, positive = activation": "inactive: -51.7%"}
{"smiles": "O=C1NN(c2ccccc2)C(=O)/C1=C/c1ccc(Sc2cccc3ccccc23)o1", "activity change, positive = activation": "30.7%"}
{"smiles": "CC(C)(C)NC(=O)NC(=O)CSc1nnc(COc2ccccc2Cl)o1", "activity change, positive = activation": "inactive: 13.5%"}
{"smiles": "CCC(C)(C(=O)NC1CCCC1)N(C(=O)CNC(=O)c1ccccc1)c1c(C)n(C)n(-c2ccccc2)c1=O", "note": "(centres undefined)", "activity change, positive = activation": "-30%"}
{"smiles": "Cc1ccc(NC(=S)NNC(=O)c2ccco2)cc1", "Potency": "active: 11.2 µM"}
{"smiles": "COc1ccc(NC(=O)C2CCC(CNc3c(N4CCC(C)CC4)c(=O)c3=O)CC2)cc1OC", "note": "(centres undefined)", "activity change, positive = activation": "35.4%"}
{"smiles": "Cc1ccc(N(Cc2ccco2)C(=O)c2cccc(S(=O)(=O)N(C)C)c2)cc1", "activity change, positive = activation": "34.8%"}
{"smiles": "Cc1ccc(/C=C/C(=O)Nc2ccc(Oc3ccccc3)cc2)o1", "activity change, positive = activation": "inactive: -46.6%"}
{"smiles": "COc1ccc(-c2cc(=Nc3ccc(C(=O)O)cc3)c3cc(C)ccc3o2)cc1", "Potency": "active: 17.8 µM"}
{"smiles": "COc1cccc(NC(=O)c2cc3c(-c4ccc(Cl)cc4)nn(C)c3s2)c1", "activity change, positive = activation": "28.9%"}
{"smiles": "Cc1cc(O)ccc1N/C=C/c1onc(C)c1[N+](=O)[O-]", "Potency": "active: 20 µM"}
{"smiles": "O=C(CN1C(=O)c2ccccc2S1(=O)=O)NCCSC1CCCCC1", "activity change, positive = activation": "31.6%"}
{"smiles": "Cc1ccc(C(C)C)c(OCCn2c(=O)oc3ccccc32)c1", "activity change, positive = activation": "-37.4%"}
{"smiles": "CCCC(=O)CN1C(=O)C2(OCCO2)c2ccccc21", "activity change, positive = activation": "46.7%"}
{"smiles": "Cc1nnc2sc(SCC(=O)Nc3ccc(Br)cc3)nn2c1=O", "activity change, positive = activation": "49.6%"}
{"smiles": "Cc1ccc(-c2nc(C=Nc3ccccc3)c(O)o2)cc1", "activity change, positive = activation": "1.27%"}
{"smiles": "Cc1ccccc1-n1nc(CO)c(C(=O)NCC(c2ccccc2)c2ccccc2)n1", "activity change, positive = activation": "inactive: -69.1%"}
{"smiles": "CCOC(=O)C(CC)n1nc(C)c2c(C)n(-c3ccc(C)cc3)nc2c1=O", "note": "(centres undefined)", "activity change, positive = activation": "inactive: -49.4%"}
{"smiles": "CC1CCC(NC(=O)CC(C)(C)Cc2nc3ccccc3c(=O)[nH]2)CC1", "note": "(centres undefined)", "activity change, positive = activation": "-53.7%"}
{"smiles": "COc1ccc(-c2cc(NCCc3ccncc3)n3ncnc3n2)cc1", "activity change, positive = activation": "34.1%"}
{"smiles": "CCCCC[n+]1ccn(C2=C([O-])c3ccccc3C(=O)/C2=N\\S(=O)(=O)c2ccccc2)c1", "activity change, positive = activation": "-34.3%"}
{"smiles": "Cn1c(CCNC(=O)c2ccco2)nc2cc(NS(=O)(=O)c3ccccc3)ccc21", "activity change, positive = activation": "-37.6%"}
